Measured values published in PMC5922012.
Results are given in words; binding and its absence hold for the method and conditions named. Binding seen in cells or lysates may run through a third protein. Some entries that bind do so weakly or less than the wild type.

Biological target: T1, calretinin (human) (UniProt P22676)
T1 sequence: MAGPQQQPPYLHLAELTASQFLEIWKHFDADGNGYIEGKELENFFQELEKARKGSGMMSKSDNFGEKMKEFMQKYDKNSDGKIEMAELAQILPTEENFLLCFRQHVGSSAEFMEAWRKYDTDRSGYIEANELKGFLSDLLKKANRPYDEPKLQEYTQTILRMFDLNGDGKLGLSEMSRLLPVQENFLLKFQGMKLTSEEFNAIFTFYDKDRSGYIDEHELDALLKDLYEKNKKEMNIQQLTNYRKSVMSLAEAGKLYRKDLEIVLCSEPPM
Assay: co-IP; cleared lysates of MM cells (MSTO-211H-CR, ZL55-CR) in 150 mM NaCl, 1% Triton X-100, 50 mM Tris-HCl pH 8.0; rabbit polyclonal anti-CR antiserum and protein A MicroBeads at 4 °C; washed with 150 mM NaCl, 1% NP-40, 0.5% sodium deoxycholate, 0.1% SDS, 50 mM Tris-HCl pH 8.0; Western blot for septin 7

binding: binds
B1: septin 7 (protein, UniProt Q16181 1-437)
chain: MSVSARSAAAEERSVNSSTMVAQQKNLEGYVGFANLPNQVYRKSVKRGFEFTLMVVGESGLGKSTLINSLFLTDLYSPEYPGPSHRIKKTVQVEQSKVLIKEGGVQLLLTIVDTPGFGDAVDNSNCWQPVIDYIDSKFEDYLNAESRVNRRQMPDNRVQCCLYFIAPSGHGLKPLDIEFMKRLHEKVNIIPLIAKADTLTPEECQQFKKQIMKEIQEHKIKIYEFPETDDEEENKLVKKIKDRLPLAVVGSNTIIEVNGKRVRGRQYPWGVAEVENGEHCDFTILRNMLIRTHMQDLKDVTNNVHYENYRSRKLAAVTYNGVDNNKNKGQLTKSPLAQMEEERREHVAKMKKMEMEMEQVFEMKVKEKVQKLKDSEAELQRRHEQMKKNLEAQHKELEEKRRQFEDEKANWEAQQRILEQQNSSRTLEKNKKKGKIF
